In patent CN117083298A:
Numbering of substitutions follows the chain as printed. These are yes or no findings as the source states them, for the method shown. Some results given as binding are weak or reduced against the parent protein; the word gives no strength.

By UniProt entry, the sequences of proteins in these tests, tags left out. Where a name states a change or a piece, a line headed by the entry shows the natural chain unless it says otherwise.
UniProt P10636: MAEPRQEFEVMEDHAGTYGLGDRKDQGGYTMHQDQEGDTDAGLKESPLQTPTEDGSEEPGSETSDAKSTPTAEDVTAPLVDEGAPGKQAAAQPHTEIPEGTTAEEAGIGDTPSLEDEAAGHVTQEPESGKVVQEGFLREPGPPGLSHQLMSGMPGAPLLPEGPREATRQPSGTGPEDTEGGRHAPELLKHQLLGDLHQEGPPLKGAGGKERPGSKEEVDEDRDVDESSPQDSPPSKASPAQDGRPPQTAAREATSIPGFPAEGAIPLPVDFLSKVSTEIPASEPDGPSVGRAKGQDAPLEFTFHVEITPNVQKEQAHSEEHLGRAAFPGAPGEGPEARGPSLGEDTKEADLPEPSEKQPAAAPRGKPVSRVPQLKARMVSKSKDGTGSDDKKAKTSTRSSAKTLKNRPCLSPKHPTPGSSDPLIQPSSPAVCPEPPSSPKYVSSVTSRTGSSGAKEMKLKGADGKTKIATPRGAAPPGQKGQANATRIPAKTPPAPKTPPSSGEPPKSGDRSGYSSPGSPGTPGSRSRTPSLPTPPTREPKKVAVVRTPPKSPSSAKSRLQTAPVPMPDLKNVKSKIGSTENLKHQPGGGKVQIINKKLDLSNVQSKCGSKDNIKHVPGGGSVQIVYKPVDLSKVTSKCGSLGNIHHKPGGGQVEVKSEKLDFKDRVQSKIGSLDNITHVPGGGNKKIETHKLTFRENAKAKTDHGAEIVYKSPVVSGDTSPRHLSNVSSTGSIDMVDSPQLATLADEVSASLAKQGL

Target: 人全长重组tau(2N4R) (human) (UniProt P10636)
Assay: SPR, Biacore T200, 25 °C, mAb captured by anti-Fc on a CM4 chip, tau as analyte, 1:1 Langmuir fit

B1: PT1B635 (antibody, human IgG1, kappa, V domains shown)
VH: QVQLVQSGAEVKKPGASVKVSCKASGYTFTSYWITWVRQAPGQGLEWMGDIHPGRGSTKYAQKLQGRVTLTTDTSTSTAYMELRSLRSDDTAVYYCARRWGFDYWGQGTLVTVSS
VL: DIVITQTPLSLPVTPGEPASISCRSSKSLLYKDGKTYLNWFLQKPGQSPQLLIYLMSTRASGVPDRFSGSGSGTDFTLKISRVEAEDVGVYYCQQLVDYPLTFGQGTKLEIKR
binding: binds

B2: PT1B901 (antibody, human IgG1, kappa, V domains shown)
VH: B1 VH
VL: B1 VL with G34L
binding: binds
